From EP4477673A1, “IMMUNOCONJUGATE AND USE THEREOF” (priority 2022, dated 2023)
Results are given in words; binding and its absence hold for the method and conditions named. A result given as binding can be weak or reduced; the word gives no strength.

Target: cynomolgus monkey PD-1 antigen protein (Sino Biological, 90311-C08H) (cynomolgus monkey)
Assay: SPR Biacore 8K

B1: A17m0902_hIgG4 (antibody, V domains shown)
VH: EVQLVESGGGLVQPGGSLRLSCAASGLTFSDYSMSWYRQAPGKGRELVAIISGSGVITHYVDSVKGRFTISRDNAKNTLYLQMRSLRAEDTAVYYCRAVSDWEDYWGQGTQVTVSS
notes: VHH-Fc antibody; not shown: human IgG4 Fc with hinge region and S228P (EU)
For B1, the binding was “binds”.
